Experimental data reported in article PMC12071843.
These are yes or no findings as the source states them, for the method shown. In cells and extracts the contact can be indirect. These calls come from enrichment with a bait or labelling near it, and not all partners need be listed.

By UniProt entry, the sequences of proteins in these tests, tags left out. Where a name states a change or a piece, a line headed by the entry shows the natural chain unless it says otherwise.
UniProt P08254: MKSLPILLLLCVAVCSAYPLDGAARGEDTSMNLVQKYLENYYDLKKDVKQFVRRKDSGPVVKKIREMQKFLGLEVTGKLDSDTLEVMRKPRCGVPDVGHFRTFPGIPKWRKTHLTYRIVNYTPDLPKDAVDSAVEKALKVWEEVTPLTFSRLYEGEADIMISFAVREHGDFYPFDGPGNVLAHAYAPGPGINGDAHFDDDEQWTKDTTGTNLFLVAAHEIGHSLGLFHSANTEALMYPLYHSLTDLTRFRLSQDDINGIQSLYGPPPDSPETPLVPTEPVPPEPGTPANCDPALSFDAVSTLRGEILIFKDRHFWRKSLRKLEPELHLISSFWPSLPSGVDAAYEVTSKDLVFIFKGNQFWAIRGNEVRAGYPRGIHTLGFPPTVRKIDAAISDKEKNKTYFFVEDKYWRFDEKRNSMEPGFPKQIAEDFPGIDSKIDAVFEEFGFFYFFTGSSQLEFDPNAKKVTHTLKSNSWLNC

B1: Barrier-to-autointegration factor (protein, UniProt O75531 1-89)
chain: MTTSQKHRDFVAEPMGEKPVGSLAGIGEVLGKKLEERGFDKAYVVLGQFLVLKKDEDLFREWLKDTCGANAKQSRDCFGCLREWCDAFL
B2: WD repeat and FYVE domain-containing protein 1 (protein, UniProt Q8IWB7 1-410)
chain: MAAEIHSRPQSSRPVLLSKIEGHQDAVTAALLIPKEDGVITASEDRTIRVWLKRDSGQYWPSIYHTMASPCSAMAYHHDSRRIFVGQDNGAVMEFHVSEDFNKMNFIKTYPAHQNRVSAIIFSLATEWVISTGHDKCVSWMCTRSGNMLGRHFFTSWASCLQYDFDTQYAFVGDYSGQITLLKLEQNTCSVITTLKGHEGSVACLWWDPIQRLLFSGASDNSIIMWDIGGRKGRTLLLQGHHDKVQSLCYLQLTRQLVSCSSDGGIAVWNMDVSREEAPQWLESDSCQKCEQPFFWNIKQMWDTKTLGLRQHHCRKCGQAVCGKCSSKRSSYPVMGFEFQVRVCDSCYDSIKDEDRTSLATFHEGKHNISHMSMDIARGLMVTCGTDRIVKIWDMTPVVGCSLATGFSPH
B3: Isoform 2 of Embryonic polyadenylate-binding protein 2 (protein, UniProt A6NDY0-2 1-255)
chain: MWPFPSRSLFPPPTQAWLQTVSSDPEAQGWGAWNETKEILGPEGGEGKEEKEEEEDAEEDQDGDAGFLLSLLEQENLAECPLPDQELEAIKMKVCAMEQAEGTPRPPGVQQQAEEEEGTAAGQLLSPETVGCPLSGTPEEKVEADHRSVYVGNVDYGGSAEELEAHFSRCGEVHRVTILCDKFSGHPKGCCRKEPTSLGSAPQTAGAFEDTQAPGGHPSPTAASRAGPGSDHKGRTGPVENSHHGFHRIKGKTRF
B4: ATP-dependent DNA helicase Q4 (protein, UniProt O94761 1-1208)
chain: MERLRDVRERLQAWERAFRRQRGRRPSQDDVEAAPEETRALYREYRTLKRTTGQAGGGLRSSESLPAAAEEAPEPRCWGPHLNRAATKSPQSTPGRSRQGSVPDYGQRLKANLKGTLQAGPALGRRPWPLGRASSKASTPKPPGTGPVPSFAEKVSDEPPQLPEPQPRPGRLQHLQASLSQRLGSLDPGWLQRCHSEVPDFLGAPKACRPDLGSEESQLLIPGESAVLGPGAGSQGPEASAFQEVSIRVGSPQPSSSGGEKRRWNEEPWESPAQVQQESSQAGPPSEGAGAVAVEEDPPGEPVQAQPPQPCSSPSNPRYHGLSPSSQARAGKAEGTAPLHIFPRLARHDRGNYVRLNMKQKHYVRGRALRSRLLRKQAWKQKWRKKGECFGGGGATVTTKESCFLNEQFDHWAAQCPRPASEEDTDAVGPEPLVPSPQPVPEVPSLDPTVLPLYSLGPSGQLAETPAEVFQALEQLGHQAFRPGQERAVMRILSGISTLLVLPTGAGKSLCYQLPALLYSRRSPCLTLVVSPLLSLMDDQVSGLPPCLKAACIHSGMTRKQRESVLQKIRAAQVHVLMLTPEALVGAGGLPPAAQLPPVAFACIDEAHCLSQWSHNFRPCYLRVCKVLRERMGVHCFLGLTATATRRTASDVAQHLAVAEEPDLHGPAPVPTNLHLSVSMDRDTDQALLTLLQGKRFQNLDSIIIYCNRREDTERIAALLRTCLHAAWVPGSGGRAPKTTAEAYHAGMCSRERRRVQRAFMQGQLRVVVATVAFGMGLDRPDVRAVLHLGLPPSFESYVQAVGRAGRDGQPAHCHLFLQPQGEDLRELRRHVHADSTDFLAVKRLVQRVFPACTCTCTRPPSEQEGAVGGERPVPKYPPQEAEQLSHQAAPGPRRVCMGHERALPIQLTVQALDMPEEAIETLLCYLELHPHHWLELLATTYTHCRLNCPGGPAQLQALAHRCPPLAVCLAQQLPEDPGQGSSSVEFDMVKLVDSMGWELASVRRALCQLQWDHEPRTGVRRGTGVLVEFSELAFHLRSPGDLTAEEKDQICDFLYGRVQARERQALARLRRTFQAFHSVAFPSCGPCLEQQDEERSTRLKDLLGRYFEEEEGQEPGGMEDAQGPEPGQARLQDWEDQVRCDIRQFLSLRPEEKFSSRAVARIFHGIGSPCYPAQVYGQDRRFWRKYLHLSFHALVGLATEELLQVAR
B5: Small integral membrane protein 35 (protein, UniProt A0A1B0GVV1 1-85)
chain: MTGEDSISTLGLILGVGLLLLLVSILGYSLAKWYQRGYCWEGPNFVFNLYQIRNLKDLEMGPPFTISGHISSTDGGYMKFSNGLV
B6: Sorbin and SH3 domain-containing protein 1 (protein, UniProt Q9BX66 1-1292)
chain: MSSECDGGSKAVMNGLAPGSNGQDKATADPLRARSISAVKIIPVKTVKNASGLVLPTDMDLTKICTGKGAVTLRASSSYRETPSSSPASPQETRQHESKPGLEPEPSSADEWRLSSSADANGNAQPSSLAAKGYRSVHPNLPSDKSQDATSSSAAQPEVIVVPLYLVNTDRGQEGTARPPTPLGPLGCVPTIPATASAASPLTFPTLDDFIPPHLQRWPHHSQPARASGSFAPISQTPPSFSPPPPLVPPAPEDLRRVSEPDLTGAVSSTDSSPLLNEVSSSLIGTDSQAFPSVSKPSSAYPSTTIVNPTIVLLQHNREQQKRLSSLSDPVSERRVGEQDSAPTQEKPTSPGKAIEKRAKDDSRRVVKSTQDLSDVSMDEVGIPLRNTERSKDWYKTMFKQIHKLNRDTPEENPYFPTYKFPELPEIQQTSEEDNPYTPTYQFPASTPSPKSEDDDSDLYSPRYSFSEDTKSPLSVPRSKSEMSYIDGEKVVKRSATLPLPARSSSLKSSSERNDWEPPDKKVDTRKYRAEPKSIYEYQPGKSSVLTNEKMSRDISPEEIDLKNEPWYKFFSELEFGKPPPKKIWDYTPGDCSILPREDRKTNLDKDLSLCQTELEADLEKMETLNKAPSANVPQSSAISPTPEISSETPGYIYSSNFHAVKRESDGAPGDLTSLENERQIYKSVLEGGDIPLQGLSGLKRPSSSASTKDSESPRHFIPADYLESTEEFIRRRHDDKEKLLADQRRLKREQEEADIAARRHTGVIPTHHQFITNERFGDLLNIDDTAKRKSGSEMRPARAKFDFKAQTLKELPLQKGDIVYIYKQIDQNWYEGEHHGRVGIFPRTYIELLPPAEKAQPKKLTPVQVLEYGEAIAKFNFNGDTQVEMSFRKGERITLLRQVDENWYEGRIPGTSRQGIFPITYVDVIKRPLVKNPVDYMDLPFSSSPSRSATASPQFSSHSKLITPAPSSLPHSRRALSPEMHAVTSEWISLTVGVPGRRSLALTPPLPPLPEASIYNTDHLALSPRASPSLSLSLPHLSWSDRPTPRSVASPLALPSPHKTYSLAPTSQASLHMNGDGGVHTPSSGIHQDSFLQLPLGSSDSVISQLSDAFSSQSKRQPWREESGQYERKAERGAGERGPGGPKISKKSCLKPSDVVRCLSTEQRLSDLNTPEESRPGKPLGSAFPGSEAEQTERHRGGEQAGRKAARRGGSQQPQAQQRRVTPDRSQTSQDLFSYQALYSYIPQNDDELELRDGDIVDVMEKCDDGWFVGTSRRTKQFGTFPGNYVKPLYL
B7: E3 ubiquitin-protein ligase TRIM41 (protein, UniProt Q8WV44 1-630)
chain: MAAVAMTPNPVQTLQEEAVCAICLDYFTDPVSIGCGHNFCRVCVTQLWGGEDEEDRDELDREEEEEDGEEEEVEAVGAGAGWDTPMRDEDYEGDMEEEVEEEEEGVFWTSGMSRSSWDNMDYVWEEEDEEEDLDYYLGDMEEEDLRGEDEEDEEEVLEEVEEEDLDPVTPLPPPPAPRRCFTCPQCRKSFPRRSFRPNLQLANMVQVIRQMHPTPGRGSRVTDQGICPKHQEALKLFCEVDEEAICVVCRESRSHKQHSVVPLEEVVQEYKAKLQGHVEPLRKHLEAVQKMKAKEERRVTELKSQMKSELAAVASEFGRLTRFLAEEQAGLERRLREMHEAQLGRAGAAASRLAEQAAQLSRLLAEAQERSQQGGLRLLQDIKETFNRCEEVQLQPPEVWSPDPCQPHSHDFLTDAIVRKMSRMFCQAARVDLTLDPDTAHPALMLSPDRRGVRLAERRQEVADHPKRFSADCCVLGAQGFRSGRHYWEVEVGGRRGWAVGAARESTHHKEKVGPGGSSVGSGDASSSRHHHRRRRLHLPQQPLLQREVWCVGTNGKRYQAQSSTEQTLLSPSEKPRRFGVYLDYEAGRLGFYNAETLAHVHTFSAAFLGERVFPFFRVLSKGTRIKLCP

Legend:
[1] = target: Matrix metalloproteinase 3 (human (endogenous in OVCAR3CIS)) (UniProt P08254); experiment: affinity purification with mass spectrometry; intracellular MMP3: protein of serum-free OVCAR3CIS cells, untreated or cisplatin-treated, pre-cleared on protein A/G magnetic beads, anti-MMP3 antibody (Abcam) 10 ug/200 ug protein at 4 °C overnight, protein A/G magnetic beads (Pierce MS-compatible Magnetic IP Kit), eluate by LC-MS/MS; listed proteins consistent in at least two replicates
[2] = target: Matrix metalloproteinase 3 (human (endogenous in OVCAR3CIS)) (UniProt P08254); experiment: affinity purification with mass spectrometry; extracellular MMP3: supernatants of serum-free OVCAR3CIS cells, untreated or cisplatin-treated, pre-cleared on protein A/G magnetic beads, anti-MMP3 antibody (Abcam) 10 ug/200 ug protein at 4 °C overnight, protein A/G magnetic beads (Pierce MS-compatible Magnetic IP Kit), eluate by LC-MS/MS

| Binder | binding [1] | binding [2] |
| --- | --- | --- |
| B1 | binds |  |
| B2 | binds |  |
| B3 |  | binds |
| B4 |  | binds |
| B5 |  | binds |
| B6 |  | binds |
| B7 |  | binds |
